The target in the experiment is T1, Flag-tagged human GBP1 (GBP1-Wt) (human) (UniProt P32455).
T1 sequence: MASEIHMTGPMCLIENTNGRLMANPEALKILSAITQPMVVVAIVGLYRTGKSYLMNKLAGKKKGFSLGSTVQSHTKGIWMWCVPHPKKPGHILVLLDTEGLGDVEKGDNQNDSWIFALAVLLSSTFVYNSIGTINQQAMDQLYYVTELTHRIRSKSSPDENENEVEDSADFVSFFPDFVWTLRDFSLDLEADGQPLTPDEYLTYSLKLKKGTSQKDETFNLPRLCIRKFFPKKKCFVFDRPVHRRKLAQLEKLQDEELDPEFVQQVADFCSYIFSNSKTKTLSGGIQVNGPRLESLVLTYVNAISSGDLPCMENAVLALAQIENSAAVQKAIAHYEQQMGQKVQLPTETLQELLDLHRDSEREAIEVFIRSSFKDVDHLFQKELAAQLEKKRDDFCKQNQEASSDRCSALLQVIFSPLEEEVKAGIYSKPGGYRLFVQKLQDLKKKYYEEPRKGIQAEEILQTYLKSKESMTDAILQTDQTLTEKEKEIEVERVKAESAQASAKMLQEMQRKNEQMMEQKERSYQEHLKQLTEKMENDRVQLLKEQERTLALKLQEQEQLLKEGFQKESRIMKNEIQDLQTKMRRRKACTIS
The experiment is described as follows: co-IP; co-immunoprecipitation using a Flag-tagged GBP1 construct; cells, buffer and conditions not told; no blot shown.

The text below walks through data of paper PMC10868826.

These are yes or no findings as the source states them, for the method shown. Binding seen in cells or lysates may run through a third protein. Sequences can lack the tags named with a protein.

With HCV core protein (hepatitis C virus), the binding result is “no binding”.
